Measurements taken from patent US8329643B2, “PIMAP39 modulates LPS-induced inflammatory response” (Trustees of Boston University, priority 2008, dated 2012).
“Also recorded” adds a separate entry of the source. At least one peptide structure holds a part that was inferred or is arguable (an end, a ring closure or a residue). No end group written: not given here.

Test system: LPS-induced endotoxic shock
Assay: Endotoxic shock assay: survival of mice after lethal dose of LPS + D-Gal
Format: in vivo, mouse
Method: (A) Weight-matched wild-type mice (n=15) were injected intraperitoneal (i.p.) with a lethal dose of LPS (1 mg D-Gal+12.5 ng LPS per gram body weight) followed immediately by tail vein injection of DMSO (black line), 40 µg/g SCpep as control (green line) or […] PIMAP39 (red line). The treated mice were monitored for their behavior and mortality every hour. The survival time of each treated mouse was graphed. […] (B) Blood was collected every 2 hours post injection for a total duration of 6 hours. Mice were warmed under heating lamps to promote blood flow and a small incision was made on the tail. About 10-50 μl of blood was collected per animal at each time point (2, 4 or 6 hours). Blood samples from mice within the same group were pooled. Red blood cells were removed from the sample via centrifugation at 5×10^3 rpm for 1 min using serum separator tubes (Fisher). Pooled plasma samples from the mice within each group were measured in triplets by ELISA (Abraxis) to see the effects of PIMAP39 on TNF-α production. ELISA immunoreactivity was quantitated using a microplate reader (Bio-Rad) and the results from the 6 hr mark were graphed (only the data for LPS+DMSO and LPS+PIMAP39 are presented here due to the similarity between LPS+DMSO and LPS+SCepetide).
At the age of 8-12 weeks, weight-matched wild-type mice (n=15) weighing 20-25 g were injected intraperitoneal (i.p.) with lethal dose of LPS (12.5 ng LPS+1 mg D-Gal per gram body weight) followed immediately by tail vein injection of peptides or DMSO as control. The treated mice were maintained in a normal-light-cycle room and provided with free access to rodent chow and water and were monitored for their behavior and mortality every hour. The survival time of each treated mouse was recorded and a Kaplan-Meier graph was made based on the results. For blood plasma, blood was collected every 2 hours post injection for a total duration of 6 hours. […] Mice were warmed under heating lamp to promote blood flow, and a small incision was made on the tail. About 10-50 μl of blood was collected per animal at each time point (2, 4 or 6 hrs). The blood samples at each time point from mice within the same groups were pooled in order to have enough blood for ELISA. Red blood cells were removed from the sample via centrifugation at 5×10^3 rpm for 1 min using serum separator tubes (Fisher). Pooled plasma samples from each group were measured by ELISA (Abraxis; Warminster, Pa.) according to manufacturer's instructions. ELISA immunoreactivity was quantified by using a microplate reader (Bio-Rad, Hercules, Calif.) and the results from the 6 hr mark were graphed.
To investigate how PIMAP39 mediates endotoxic shock, 3 month old, weight matched mice were treated with a lethal dose of LPS (12.5 ng LPS+1 mg D-Gal per gram body weight) followed immediately by a tail vein injection of PIMAP39 or controls. The treated mice were monitored for their behavior and mortality every hour. The survival time of each treated mouse was measured and graphed (FIG. 7A). Most of the control mice (LPS+DMSO and LPS+SCpeptide) became sick at 3-4 hrs and deaths occurred between 6-8 hrs (FIG. 7A, black and green lines).

## KYGATTVVRVCEVTYDKTPLEKDGITVV [PIMAP39]
40 μg/g, n=15
  number of treated mice that survived a lethal dose of LPS: 3 mice
40 mg/g PIMAP39, P<0.0001, log-rank and wilcoxon tests
  survival vs LPS alone and LPS+SCpep groups: Significant differences
mice, 40 μg/g, or even a low concentration (0.4 μg/g)
  prolongs survival time compared to controls: 4 to 5 h
mice, lethal dose LPS (12.5 ng LPS+1 mg D-Gal per gram), 40 μg/g tail vein
  prolonged survival time compared to the controls (average): 4 h
mice, lethal dose LPS, 40 μg/g tail vein (also 0.4 μg/g)
  onset of sickness: efficiently delays sickness; also recorded: delayed sickness
Treated mice
  resistance to LPS-induced endotoxic shock: significant resistance
Treatment of mice with peptide
  severity of adverse host responses to LPS stimulation: significantly attenuates; also recorded: decreases
Treatment with PIMAP39
  mice in which LPS-induced death was prevented: 12.5%
